The campaign covered roughly 300,000 compounds. About 5,400 (1.8%) were called active. Inconclusive means that the source gave no clear call. Such entries were picked first, then a sample of the others. Calls follow the shape of the full dose curve; tested in HEK293 cells. Where the call is inconclusive, the potency comes from a doubtful curve fit.
Experiment: qHTS for inhibitors of binding or entry into cells for Marburg Virus
Conditions: Marburg virus pseudotyped entry inhibition, cell reporter; series mostly up to 37.8 µM
Potency is read from the fitted curve at half-maximal effect.

SMILES	Potency
CCn1c(CNC(=O)c2cc(OC)c(OC)c(OC)c2)cc2cc(C)ccc21	inconclusive: 7.08 µM [inhibitor, partial curve, poor fit]
O=C(CN1CCN(c2ccccc2F)CC1)NCc1ccccc1	inactive
CCOc1cc(C(=O)OCC(=O)NC(C)c2ccccc2)ccc1OCC(=O)N1CCOCC1 (stereo not drawn)	inconclusive: 3.16 µM [inhibitor, partial curve, poor fit]
CN(C)c1nc2n(c(=O)n1)C(C#N)CS2 (stereo not drawn)	inactive
Cc1ccc(C(=O)CNc2ccc(Br)cc2)cc1	inconclusive: 7.3 µM [activator, partial curve, poor fit]
CCSC(N)=Nc1ccc(C(F)(F)F)cc1	inactive
COc1ccc(CC(=O)NC(c2ccccc2)c2ccccc2)cc1S(=O)(=O)N1CCOCC1	inconclusive: 35.5 µM [inhibitor, single point]
C=CCn1c(SCc2ccc(C#N)cc2)nnc1-c1cccc(Cl)c1	inconclusive: 2.24 µM [inhibitor, full curve]
CC(=O)OC(C(=O)NCc1ccc(F)cc1)c1ccccn1 (stereo not drawn)	inactive
O=C(O)c1ccc(S(=O)(=O)Nc2ccc3c(c2)OCCO3)cc1	inconclusive: 0.447 µM [inhibitor, partial curve, poor fit]
COc1ccc(OC)c(Cc2nnc(CCC(=O)NCc3ccsc3)o2)c1	inactive
O=c1[nH]ncn2cccc12	inconclusive: 5.62 µM [activator, partial curve]
COc1cc(C(=O)Nc2cc(C)ccn2)cc(OC)c1OC	inactive
COc1ccc(/C=N/NC(=O)CN(Cc2ccccc2)S(=O)(=O)c2ccc3c(c2)OCCO3)cc1	inconclusive: 1.26 µM [inhibitor, single point]
CC(C)CNC(=O)COC(=O)c1c2c(nc3ccccc13)/C(=C/c1cccs1)CC2	inconclusive: 35.5 µM [inhibitor, single point]
Cc1ccccc1C(=O)NCCCc1ccccc1	inconclusive: 15.8 µM [activator, partial curve, poor fit]
Cc1ccc(S(=O)(=O)c2nc(-c3ccccc3F)oc2NCc2ccccc2)cc1	inactive
Clc1cccc(Oc2ncc(CN3CCOCC3)s2)c1	inactive
Cc1ccc(Nc2c([N+](=O)[O-])c(=O)n(C)c3ccccc23)cc1C	inconclusive: 20.6 µM [inhibitor, single point]
COC(=O)CC1c2ccccc2C=C(/C=C/c2ccc3c(c2)OCO3)N1C(=O)OC (stereo not drawn)	inactive
Cc1ccc(CC(=O)NCC(c2ccco2)N(C)C)cc1C (stereo not drawn)	inactive
Cc1ccc(CNC(=O)c2ccccc2N)cc1	inactive
Cc1ccccc1C(=O)N1CCC(C(=O)Nc2ccc(F)cc2F)CC1	inactive
Cc1onc(-c2c(F)cccc2Cl)c1C(=O)NCCc1ccc(S(N)(=O)=O)cc1	inconclusive: 1.16 µM [activator, single point]
Cc1nc2sccn2c(=O)c1Cl	inactive

SMILES	Potency
O=C(NCCNc1ccc([N+](=O)[O-])cc1C(F)(F)F)c1cccc(F)c1	inactive
CCN1CCN(C(=O)CN(C)S(=O)(=O)c2cc(C)ccc2OC)CC1	inconclusive: 0.073 µM [inhibitor, full curve, poor fit]
COc1cc([N+](=O)[O-])c(N2CCOCC2)c([N+](=O)[O-])c1OC	inconclusive: 39.8 µM [inhibitor, partial curve, poor fit]
O=S(=O)(NC(=NCCc1ccc(Cl)cc1)c1ccccc1Cl)c1cccs1	inconclusive: 20 µM [inhibitor, single point]
CO/N=C/c1ccc(N2CCCC2)c([N+](=O)[O-])c1	inconclusive: 15.8 µM [inhibitor, single point]
COc1ccc(Cl)cc1NC(=S)NCc1ccc(S(N)(=O)=O)cc1	inconclusive: 0.282 µM [activator, partial curve, poor fit]
O=C(Sc1n[nH]c(=O)[nH]c1=O)c1ccccc1	inactive
Cc1ccccc1CN1CCSCCS1(=O)=O	inconclusive: 0.0014 µM [inhibitor, full curve, poor fit]
O=S(=O)(c1ccc(Cl)cc1Cl)n1ccnc1	inactive
COC(CNC(=O)c1ccc2nc(-c3ccccc3)c(-c3ccccc3)nc2c1)OC	inconclusive: 35.5 µM [inhibitor, single point]
COc1ccc(C2CC(=O)c3cc(-c4nc(-c5cccc(Cl)c5)cs4)c(=O)[nH]c3C2)cc1 (stereo not drawn)	inconclusive: 3.55 µM [activator, full curve, poor fit]
CC(=O)Nc1ccc(-c2csc(N/N=C(/C)c3ccccc3)n2)cc1	inconclusive: 35.5 µM [inhibitor, single point]
O=C(NCCc1c[nH]c2ccccc12)C1CCC(Cn2c(=S)[nH]c3ccccc3c2=O)CC1 (stereo not drawn)	inconclusive: 18.3 µM [inhibitor, single point]
Cc1oc2c(c1C(=O)NCCO)CCCC2	inactive
COc1ccccc1NC(=O)CN(c1ccc(C)cc1)S(=O)(=O)c1c(C)n[nH]c1C	inconclusive: 15.8 µM [inhibitor, partial curve, poor fit]
Cn1cccc1C(=S)N=P(C1CCCCC1)(N1CCOCC1)N1CCOCC1	inactive
COc1ccc(NC(=O)Nc2ccc3nsnc3c2)cc1	inconclusive: 2.06 µM [activator, partial curve]
COc1ccc(C(CNC(=O)CNC(=O)c2cccc(Cl)c2)N2CCCC2)cc1 (stereo not drawn)	inconclusive: 6.31 µM [activator, single point]
COc1ccc(Cl)cc1NS(=O)(=O)c1cccc(C(=O)NC2CCC(O)CC2)c1 (stereo not drawn)	inactive
CCc1ccc(C(=O)NNc2ccccc2F)cc1	active: 4.47 µM
CCN(CC)S(=O)(=O)c1cccc(NC(=O)CN2C(=O)NC3(CCC(C)CC3)C2=O)c1 (stereo not drawn)	inconclusive: 5.62 µM [activator, single point]
Cc1cc(-c2ccccc2)nc(SCC(=O)N2CCCC2)n1	inconclusive: 20 µM [activator, single point]
COc1ccc(CC(=O)Nc2cc(C)ccn2)cc1	inactive
CC1CCN(CCCCOc2ccc(Br)cc2)CC1	inconclusive: 35.5 µM [inhibitor, single point]
CCOc1cc2c(cc1OCC)-n1cccc1C(c1ccc(OC)c(O)c1)NC2 (stereo not drawn)	inconclusive: 28.2 µM [inhibitor, single point]

SMILES	Potency
Cc1[nH][nH]c(=O)c1C(c1ccc(-c2cccc(Cl)c2)o1)c1c(C)[nH][nH]c1=O	inactive
O=C(COc1cc(F)ccc1[N+](=O)[O-])Nc1ccc(N2CCCCC2)cc1	inconclusive: 22.4 µM [inhibitor, single point]
COc1ccc(CN(C)C(=O)c2cc(S(=O)(=O)N3CCOCC3)ccc2N2CCCC2)cc1	inactive
CCc1ccccc1NC1Nc2cc(C)nn2S1 (stereo not drawn)	inactive
Cc1csc(NC(=S)NC(=O)c2ccccc2)n1	inconclusive: 0.562 µM [activator, full curve, poor fit]
CC(C)OC(=O)CC1C(=O)NCCN1C(=S)NC(=O)c1ccccc1Cl (stereo not drawn)	inactive
Cc1nn(Cc2ccc(Cl)cc2)c(C)c1NC(=O)c1cc(-c2ccc3c(c2)OCO3)on1	inconclusive: 14.6 µM [inhibitor, partial curve, poor fit]
O=c1c2c(-c3cccs3)csc2ncn1-c1ccc(Br)cc1	inconclusive: 2 µM [activator, partial curve]
Cc1ccc2c(c1)c1c3n2CCN(C(=O)c2cccc(C(F)(F)F)c2)C3CCC1 (stereo not drawn)	inactive
COCCNC(=O)c1c(N)n(/N=C/c2cccs2)c2nc3ccccc3nc12	inconclusive: 5.01 µM [inhibitor, single point]
O=C(Nc1ccccc1Cl)OC1CN2CCC1CC2 (stereo not drawn)	inconclusive: 17.8 µM [inhibitor, single point]
CC(=O)Oc1c(C)cc(Cl)cc1C(=O)Nc1ccc([N+](=O)[O-])cc1Cl	active: 1.46 µM
COc1ccccc1NC(=O)c1ccc(NS(=O)(=O)c2ccc(F)c(Cl)c2)cc1	inconclusive: 1 µM [inhibitor, partial curve, poor fit]
O=C(Cn1c(=O)nc(-c2ccccc2F)c2cc(Cl)ccc21)NCCCc1ccccc1	inconclusive: 35.5 µM [inhibitor, single point]
CCOC(=O)c1cccc(NC(=O)COc2ccc([N+](=O)[O-])cc2)c1	inactive
Cc1nn(C)cc1C(=O)Nc1ccc2c(c1)OCCO2	inactive
CN(C(=O)c1cc(COc2c(F)cccc2F)on1)C1CCOC1 (stereo not drawn)	inconclusive: 35.5 µM [activator, single point]
Cc1c(C(=O)O/N=C(\N)c2ccccn2)cccc1[N+](=O)[O-]	inconclusive: 35.5 µM [inhibitor, single point]
C=CC(C)N1C(=O)S/C(=C\c2ccc(N3CCOCC3)cc2C)C1=O (stereo not drawn)	inconclusive: 1.58 µM [activator, partial curve, poor fit]
CC1(C)Cc2c(sc(NC(=O)c3ccc(C(=O)c4ccccc4)cc3)c2C#N)C(C)(C)N1	inconclusive: 3.55 µM [activator, single point]
COc1ccc(-c2noc(C)c2-c2ccc3ccccc3n2)c(O)c1	inconclusive: 35.5 µM [inhibitor, single point]
Cc1cnc(NC(=O)Cc2c[nH]c3ccccc23)s1	inactive
O=C(Nc1ccccn1)c1ccc(Cl)c(S(=O)(=O)N2CCCCCC2)c1	inconclusive: 14.1 µM [inhibitor, single point]

Reference: PubChem BioAssay AID540276 (National Center for Advancing Translational Sciences (NCATS), 2011)
